Laboratory results as given in PMC8954350, “Non-Canonical Cannabinoid Receptors with Distinct Binding and Signaling Properties in Prostate and Other Cancer Cell Types Mediate Cell Death” (International Journal of Molecular Sciences, 2022).
pKi: −log10 of the molar value. Values joined by “and” are separate entries in the source; they are usually repeats but may differ in a detail not shown here. Identical values can stand only once.

Key:
DU-145 cells = experiment: LDH cytotoxicity, DU-145 cells; type: cell-based, human; conditions: 24 h
Description: DU-145 cytotoxicity (cell death) was assessed as previously described using the LDH-Cytotoxicity Colorimetric Assay Kit II (BioVision Research Products; Milpitas, CA USA, #K313) to quantify lactate dehydrogenase (LDH) release from damaged or dying cells. DU-145 cells were seeded at a density of 130 × 10^3 cells/well in 6-well plates and maintained in an incubator at 37 °C with 5% CO2 for 24 h. […] Treated cells were incubated for an additional 24 h, followed by quantification of LDH release. LDH released from damaged or dying cells oxidizes lactate to produce NADH which then reacts with a water-soluble tetrazolium salt (WST) reagent to produce a yellow-colored product. The intensity of the yellow-colored product was detected with an OD reading at 450 nm (quantified by a BioTek microplate reader interfaced with SoftMax Pro 5.4.5 software; Winooski, VT, USA) and was directly proportional to the amount of LDH released. Percent cytotoxicity was calculated according to the manufacturer’s protocol as the following: % Cytotoxicity=OD450 Supernatant/Supernatant+Lysate

[1] = system: CBRs expressed in PC-3 membranes; experiment: [^3H]WIN-55,212-2 competitive binding screen, PC-3 membranes; design: species or system human; conditions: 1 μM ligand, 1 nM radioligand
Description: (§1) The assay was conducted as previously detailed. […] All binding reactions were conducted in triplicate, in a final volume of 1 mL, and, following mixing, were incubated for 20 min in a 37 °C water bath to achieve equilibrium. After incubation, reactions were terminated by rapid vacuum filtration through Whatman GF/B glass fiber filters (Brandel; Gaithersburg, MD, USA), followed by three washes of 4 mls of ice-cold filtration buffer (50 mM Tris, pH 7.4, and 0.05% bovine serum albumin). Samples were punched out from filter papers into scintillation vials, to which 4 mls of ScintiverseTM-BDR cocktail scintillation fluid (Fisher Scientific; Hampton, NH, USA) was added. Filters were incubated at room temperature for 24 h in scintillation fluid, vortexed, and radioactivity (measured as DPMs) was quantified via a liquid scintillation spectrophotometer (Tri Carb 2100 TR Liquid Scintillation Analyzer, Packard Instruments, Meriden, CT, USA).
(§2) These experiments were conducted to screen well-characterized cannabinoid ligands with high affinity for canonical CB1 and/or CB2Rs for binding to CBRs expressed in prostate cancer cells lines, as detailed in [33]. […] After incubation, reactions were terminated by rapid vacuum filtration and processed for radioactivity, as detailed in Section 4.5.1.

[2] = target: CBRs expressed in DU-145 membranes; type: binding, human
Description: (§3) The assay was performed as previously detailed. […] All binding reactions were conducted in triplicate, in a final volume of 1 mL, and, following mixing, were incubated for 20 min in a 37 °C water bath to achieve equilibrium. After incubation, reactions were terminated by rapid vacuum filtration and processed for radioactivity, as detailed in Section 4.5.1.
(§4) Curve-fitting and all statistical analyses were performed using GraphPad Prism® v8.0g (GraphPad Software, Inc.; San Diego, CA, USA). […] For CBR screening studies, a one-sample t-test was performed to determine differences from 100% (e.g., to quantify compounds producing displacement), followed by a one-way ANOVA and Tukey’s post hoc tests to compare displacement produced by all drugs. […] To compare specific CBR affinity (Ki) between ligands, non-linear regression analysis was employed to determine experimental IC50 values from competition receptor binding assays, which were then converted to Ki values using the Cheng–Prusoff equation [35]. […] For LDH release, ATP-dependent cell viability and JC-1 staining assays, drug effects were first analyzed by a one-sample t-test to determine differences from 0 or 100% (vehicle), followed by a one-way ANOVA and Dunnett’s post hoc test to compare all means. […]

[3] = target: CBRs expressed in PC-3 membranes; type: binding, human
Description: as §3, §4

[4] = system: CBRs expressed in DU-145 membranes; type: binding, human; remark: listed apart in the source
Description: as §1, §2

Compound: Cc1c(C(=O)NN2CCCCC2)nn(-c2ccc(Cl)cc2Cl)c1-c1ccc(I)cc1 [AM-251]
- LDH release (DU-145 cells; 10 μM): neither low (10 μM) nor high (50 μM) concentrations of WIN-55,212-2, AM-251 or AM-630 altered LDH release
- increase in LDH release (DU-145 cells; 50 μM): neither low (10 μM) nor high (50 μM) concentrations of WIN-55,212-2, AM-251 or AM-630 altered LDH release
- attenuation of GW-405833 (50 μM)-induced LDH release (DU-145 cells; co-incubation with 10 μM ligand): almost completely blocked GW-405833 induced LDH release
- displacement of [^3H]WIN-55,212-2 [1]: greater than 50%
- pKi [2]: ≥ 7.00 and 7.16
- pKi [3]: ≥ 7.00 and 7.23
- displacement of [^3H]WIN-55,212-2 [4]: greater than 50%
